# Measurements as given in PubChem BioAssay AID1347075 (National Center for Advancing Translational Sciences (NCATS), 2019).
# The whole screen tested about 400,000 compounds, of which about 5,500 (1.4%) were called active. This list was built around the results that the source calls inconclusive (neither active nor inactive); the mix of calls is not that of the screen. The call rests on the fitted dose curve; in most records, active means well fitted cell-killing curve with a large enough effect; inconclusive means small, poorly fitted or top-dose-only effect, or effect the other way; inactive means flat fitted curve, though single readings scatter. Where the call is inconclusive, the potency comes from a doubtful curve fit.
# Test: qHTS assay for MDR1-selective chemotherapeutics: Primary screen using the parental adenocarcinoma cell KB-3-1; further: nearly all actives have a fitted effect of over 60% in size
# Settings: KB-3-1 viability, CellTiter-Glo ATP luminescence, 72 h; activity change, negative = cytotoxic: at 46.1 µM (top of the series)
# Procedure, shortened: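 Using CellTiter-Glo luminescence, growth of non-resistant KB-3-1 adenocarcinoma cells is assessed 72 h after pin-tool compound addition at 37 °C. Normalized responses across the concentration series yield fitted curves.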
# On the % scale 0 is the no-effect control and ±100 the full control effect; potency means the concentration at half of the fitted maximal effect.
Compound,Potency,"activity change, negative = cytotoxic"
C=CCn1c(N)c(C(=O)Nc2ccccc2)c2nc3ccccc3nc21,"inconclusive: 29.1 µM [cytotoxic, single point]",–
COc1ccc(CN2[C@@H](CC(C)=O)c3ccc(/C=C/C(C)=O)cc3S2(=O)=O)cc1,"inconclusive: 16.4 µM [cytotoxic, single point]",–
Cc1c(NC(=O)c2coc(=O)c(Br)c2)c(=O)n(-c2ccccc2)n1C,"inconclusive: 18.4 µM [cytotoxic, single point]",–
CC(C)(C)c1ccc(C(=O)N2CCC(=O)N(C(COCc3ccccc3)Cc3ccccc3)CC2)cc1 (stereo unspecified),"inconclusive: 18.4 µM [cytotoxic, single point]",–
Cc1ccc(SCCC(=O)N/N=C/c2ccccc2O)cc1,"inconclusive: 16.4 µM [cytotoxic, single point]",–
CCCCC(=O)N1CCN(c2nc3c(C)c(C)ccc3s2)CC1,"inconclusive: 29.1 µM [cytotoxic, single point]",–
CO/N=C\CC(=O)Nc1ccc(Oc2ccccc2)cc1,active: 8.2 µM,–
CCNC(=S)N1CCn2cccc2C1c1ccc(F)cc1 (stereo unspecified),"inconclusive: 29.1 µM [rising, single point]",–
Nc1cc([N+](=O)[O-])ccc1Nc1ccc(O)cc1,inactive,–
CCc1cc(-c2nnn(CCC3COCCO3)c2CC)cc(CC)c1-c1cn(Cc2ccccc2)nn1 (stereo unspecified),"inconclusive: 29.1 µM [cytotoxic, single point]",–
Cc1cc(=O)n2[nH]c(Nc3cccc(Cl)c3)nc2n1,"inconclusive: 1.16 µM [cytotoxic, full curve, poor fit]",–
CCOc1ccccc1N1CCN(C(=O)CNC(=O)c2ccc(OC)c(OC)c2)CC1,"inconclusive: 13 µM [cytotoxic, partial curve, poor fit]",–
COc1ccc2nc3cc(Cl)ccc3c(Nc3cc(C(C)C)c(O)cc3C)c2c1,"inconclusive: 29.1 µM [cytotoxic, single point]",–
O=C(CN1CCCCC1)Nc1ccc(S(=O)(=O)NC2CCCCC2)cc1,inactive,–
Cc1oc2ncn(CC(C)C)c(=O)c2c1C(=O)NCCCN1CCCCC1C (stereo unspecified),inactive,–
Cn1c(=O)c2cc(NC(=O)Cc3cccc4ccccc34)ccc2n1-c1ccccc1,"inconclusive: 29.1 µM [cytotoxic, single point]",–
COC(=O)c1c(C)[nH]c(C(=O)COC(=O)Cn2cc(C(F)(F)F)ccc2=O)c1C,"inconclusive: 2.59 µM [cytotoxic, partial curve]",–
COc1ccc(N(C(=O)Cn2nnc(-c3ccccc3F)n2)C(C(=O)NCC2CCCO2)c2ccc(Cl)cc2)cc1 (stereo unspecified),"inconclusive: 9.2 µM [cytotoxic, partial curve]",–
COc1cccc(C(=O)/C=C/c2ccc(OCC#N)c(OC)c2)c1,"inconclusive: 20.6 µM [cytotoxic, single point]",–
COC(=O)[C@]12CCCCC=C1N(Cc1ccc(Cl)cc1Cl)C(=O)[C@H](CC(=O)N1CCC(c3ccccc3)CC1)C2,"inconclusive: 25.9 µM [cytotoxic, single point]",–
Cc1ccccc1-n1nnnc1SCCCC(=O)c1ccc(F)cc1,"inconclusive: 18.4 µM [cytotoxic, single point]",–

# Filtered by structure: the entries above with an aryl thioether with sulfur outside any ring
Compound,Potency,"activity change, negative = cytotoxic"
Cc1ccc(SCCC(=O)N/N=C/c2ccccc2O)cc1,"inconclusive: 16.4 µM [cytotoxic, single point]",–
Cc1ccccc1-n1nnnc1SCCCC(=O)c1ccc(F)cc1,"inconclusive: 18.4 µM [cytotoxic, single point]",–

# (more compounds)

Compound,Potency,"activity change, negative = cytotoxic"
Cc1ccc2[nH]c(=O)c(CN(CCCN(C)C)C(=S)NCCc3ccccc3)cc2c1,"inconclusive: 29.1 µM [cytotoxic, single point]",–
Cc1ccc(NC(=O)CSc2nn3c(=O)c(C)nnc3s2)cc1Cl,"inconclusive: 20.6 µM [rising, partial curve]",–
Cn1c(CCN2CCN(c3ccccn3)CC2)nc2cc(NS(=O)(=O)c3ccc(Cl)cc3)ccc21,"inconclusive: 29.1 µM [cytotoxic, single point]",–
CCOC(=O)c1c(C)n(-c2ccc(C)cc2)c2ccc(OCC(O)CN3CCN(C)CC3)cc12 (stereo unspecified),"inconclusive: 29.1 µM [cytotoxic, single point]",–
COC(=O)C(Cc1ccccc1)NC(=O)c1ccc(C)cc1 (stereo unspecified),inactive,–
O=C(Nc1ccc(S(=O)(=O)N2CCCCC2c2cccnc2)cc1)c1ccc(F)cc1 (stereo unspecified),"inconclusive: 32.6 µM [cytotoxic, single point]",–
O=C(Nc1nc(-c2ccccn2)cs1)c1ccc(Br)s1,inactive,–
COc1cccc(C(CNC(=O)C2CCN(C(=O)Nc3ccccc3)CC2)N(C)C)c1 (stereo unspecified),inactive,–
CN(C)c1ccc(-c2noc(C3CC(=O)N(c4ccc5c(c4)OCCO5)C3)n2)cc1 (stereo unspecified),"inconclusive: 29.1 µM [cytotoxic, single point]",–
COc1ccc(S(=O)(=O)N(C)C[C@H]2Oc3ccc(NS(=O)(=O)c4cccs4)cc3C(=O)N([C@H](C)CO)C[C@@H]2C)cc1,inactive,–
Cc1ccc(C(=O)Nc2ccc(S(=O)(=O)N3CCCC3)cc2)o1,inactive,–
CC(C(=O)N(C)Cc1cccc(F)c1)N1CCN(S(=O)(=O)c2ccc3c(c2)OCCCO3)CC1 (stereo unspecified),inactive,–
Cc1ccc(OC(=O)N(C)C[C@H]2OCc3cn(nn3)CCCC(=O)N([C@H](C)CO)C[C@@H]2C)cc1,–,inconclusive: 30.8%
COc1cc(/C=C/c2ccc(/C=C/c3cc(OC)c(OC)c(OC)c3)cc2)cc(OC)c1OC,"inconclusive: 18.4 µM [cytotoxic, single point]",–
O=C(CSc1n[nH]c(-c2ccccn2)n1)Nc1ccccc1,"inconclusive: 29.1 µM [cytotoxic, single point]",–
O=C(NCC(c1ccco1)N1CCc2ccccc21)C(=O)Nc1ccc(F)cc1F (stereo unspecified),active: 4.61 µM,–
CC1=C(C(=O)Nc2ccccc2C)C(c2ccc(C)o2)C2=C(CCCC2=O)N1 (stereo unspecified),–,inconclusive: -3.2%
COc1ccc(CCNC(=O)[C@H](C)N2C(=O)N3CCc4c([nH]c5ccccc45)[C@@]3(C)C2=O)cc1OC,"inconclusive: 20.6 µM [cytotoxic, single point]",–
O=C(c1ccco1)N1CCN(c2nc(C(F)(F)F)nc3c2nnn3Cc2ccccc2)CC1,"inconclusive: 23.1 µM [cytotoxic, partial curve, poor fit]",–
COc1ccc(Cl)cc1NS(=O)(=O)c1cccc(C(=O)NCC(C)(C)N2CCOCC2)c1,"inconclusive: 18.4 µM [cytotoxic, single point]",–
